Measurements taken from PubChem BioAssay AID1487 (National Center for Advancing Translational Sciences (NCATS), 2009).
Values joined by “and” are separate entries in the source; they are usually repeats but may differ in a detail not shown here. Equal entries are not always repeated. This is one part of the list. The main result of the screen is listed elsewhere. These columns were measured beside it and carry no call. Most of these compounds were active or inconclusive in the main read-out, so they are no random draw. Potencies come from curve fits of mixed quality, noted in brackets.

Experiment: qHTS Assay for Modulators of Lamin A Splicing
Details: HeLa LMNA splicing GFP/RFP minigene ratio, 48 h
Procedure, shortened: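 S3 HeLa stable clones carrying a lamin A-EGFP splicing minigene plus DsRed2 were seeded at 600 cells/well in Opti-MEM with 2% FBS, pin-dosed and incubated 48 h at 37°C. Acumen cytometry (488 nm) gave the GFP/RFP total-intensity ratio.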

[1] = measured here: RFP viability control channel
[2] = measured here: GFP splicing reporter channel

SMILES	AC50 [1]	AC50 [2]
COc1ccc(C(C)=O)cc1COc1ccccc1[N+](=O)[O-]	35.5 µM [rising, single point]	–
Cc1nc2ccccc2n1S(=O)(=O)c1ccc(Br)cc1	31.6 µM [rising, single point]	–
CC(Nc1ncnc2nc[nH]c12)c1ccccc1 (stereo not drawn)	35.5 µM [rising, single point]	31.6 µM [rising, single point]
CCc1ccc(C(CNC(=O)c2ccc3c(=O)n(-c4ccccc4F)c(=S)[nH]c3c2)N(C)C)cc1 (stereo not drawn)	–	35.5 µM [falling, single point]
Cc1cc(C)n(-c2nnc(C)n2/N=C/c2ccccc2OCc2ccccc2Cl)n1	12.6 µM [falling, partial curve]	12.6 µM [falling, single point]
CCOC(=O)O[C@]1(C(=O)COC(=O)CC)CC[C@@H]2[C@@H]3CCC4=CC(=O)C=C[C@@]4(C)[C@H]3[C@H](O)C[C@]21C	0.00447 µM [rising, full curve, poor fit]	–
Cc1cc(C)c2c(CC(=O)NCc3ccco3)coc2c1	17.8 µM [rising, partial curve, poor fit]	–
CC(C)(C)C(=O)Nc1ccc(C(=O)NNC(=O)c2ccccc2)cc1	1.26 µM [falling, single point]	–
COc1ccc(N2C(=NC(C)=O)SC3CS(=O)(=O)CC32)cc1OC (stereo not drawn)	3.16 µM [rising, single point]	–
CCCCC(=Nc1ccccc1OC)C1=C(O)CC(c2ccccc2)CC1=O (stereo not drawn)	31.6 µM [rising, single point]	–
Cc1c(Cl)cccc1N(Cc1ccc(C(=O)O)cc1)S(=O)(=O)c1ccccc1	35.5 µM [rising, single point]	–
CC1CCCC(NCC(=O)Nc2ccc(C(N)=O)cc2)C1C (stereo not drawn)	4.47 µM [falling, full curve, poor fit]	–
CCOC(=O)C1(Cc2cccc(F)c2)CCN(C(=O)C2CCC2)CC1	–	0.00447 µM [falling, full curve, poor fit]
CC(C)Oc1cccc(C(=O)C2CCCN(Cc3ccc(Oc4ncccn4)cc3)C2)c1 (stereo not drawn)	35.5 µM [falling, partial curve, poor fit]	35.5 µM [falling, single point]
CC(C)(C)Nc1nc(Cl)nc(NC(C)(C)C)n1	0.0112 µM [rising, full curve, poor fit]	–
CC(C)NCC(O)c1cc(O)cc(O)c1 (stereo not drawn)	5.62 µM [falling, single point]	–
Cc1ccc2nc(NC(=O)C3CCCN(S(=O)(=O)c4cccc5nsnc45)C3)sc2c1 (stereo not drawn)	20 µM [rising, partial curve]	14.1 µM [rising, partial curve, poor fit]
O=C(N/N=C/c1ccc(Sc2nc3ccccc3[nH]2)o1)c1ccncc1	22.4 µM [rising, single point]	–
Cc1cc2cc(CN(CC3CCCO3)C(=O)c3cnccn3)c(=O)[nH]c2cc1C (stereo not drawn)	12.6 µM [rising, single point]	–

SMILES	AC50 [1]	AC50 [2]
CCc1ccc(NC(=O)N2CCN(c3nnc(C)c4c(C)n(-c5ccc(Cl)cc5)nc34)CC2)cc1	–	35.5 µM [falling, partial curve, poor fit]
Cc1cc(-c2nn(-c3ccccc3F)cc2CNCCc2cnc[nH]2)c(C)s1	–	0.891 µM [falling, partial curve]
O=S(=O)(c1ccc2c(c1)OCCO2)N1CCC(c2nc3ccccc3s2)CC1	3.16 µM [rising, full curve]	–
COCCCNS(=O)(=O)c1ccc(Oc2ncc(C(F)(F)F)cc2Cl)cc1	35.5 µM [rising, single point]	35.5 µM [rising, single point]
Cc1ccc(/C=N/N2CCN(C3c4ccccc4-c4ccccc43)CC2)s1	0.0224 µM [rising, full curve, poor fit]	–
CCOc1ccc2nc(SCC(=O)c3ccc(Cl)s3)sc2c1	15.8 µM [rising, single point]	12.6 µM [rising, single point]
Cc1cc(C)n(-c2ccc(C(=O)OCC(=O)N(CC(C)C)C3CCS(=O)(=O)C3)cc2)n1 (stereo not drawn)	5.62 µM [rising, single point]	–
O=C(Nc1cc(C(F)(F)F)ccc1N1CCOCC1)c1ccc(Br)o1	–	8.91 µM [rising, partial curve, poor fit]
Nc1nc(CSC(=S)N2CCOCC2)nc(Nc2ccccc2)n1	35.5 µM [rising, single point]	17.8 µM [rising, partial curve]
O=C(O)CN(CCN(CC(=O)O)CC(=O)O)CCN(CC(=O)O)CC(=O)O	22.4 µM [rising, partial curve, poor fit] and 126 nM [rising, full curve, poor fit]	14.1 µM [rising, single point] and 11.2 µM [falling, partial curve]
CC1=CCC(C(=O)N/N=C/c2cccs2)C(c2ccc(F)cc2)C1 (stereo not drawn)	12.6 µM [falling, partial curve]	35.5 µM [falling, single point]
C=CCn1c(=O)c2c3c(sc2n2c(Nc4ccc(OC)cc4)nnc12)CCCC3	–	35.5 µM [rising, single point]
CC(C)(CO)Cc1cc(C(C)(C)C)c(O)c(C(C)(C)C)c1	35.5 µM [falling, partial curve, poor fit]	28.2 µM [falling, single point]
Cc1ccc(Oc2cc([N+](=O)[O-])cc3c2C(=O)Nc2ccccc2O3)cc1	3.16 µM [rising, partial curve]	2.24 µM [rising, partial curve, poor fit]
CC(=O)Oc1ccccc1C1=NN(C(=O)/C=C/c2ccccc2)C(c2ccccc2)C1 (stereo not drawn)	10 µM [rising, partial curve]	–
O=C(NCc1ccccc1)c1ccc(S(=O)(=O)C(F)F)cc1	22.4 µM [rising, single point]	–
COc1ccccc1-c1cc(NCc2cccc(C)c2)ncn1	12.6 µM [falling, partial curve]	12.6 µM [falling, partial curve]
Cc1cccc(C)c1N1CCN(S(=O)(=O)c2ccc(F)cc2)CC1	31.6 µM [rising, single point]	–
COc1cccc(/C=N/Nc2nn3cnnc3c3ccccc23)c1	10 µM [rising, partial curve, poor fit]	–

SMILES	AC50 [1]	AC50 [2]
O=C(/C=C/c1ccco1)Nc1ccccn1	2.82 µM [rising, full curve]	–
N#C/C(=C\Nc1ccccc1O)c1nc2ccccc2o1	15.8 µM [rising, single point]	–
CC1CN/C(=C\C(=O)c2ccc(Br)cc2)C(=O)N1 (stereo not drawn)	0.708 µM [falling, full curve, poor fit]	–
CC(C)c1ccc(NC(=O)CSc2nnc(-c3ccccn3)n2C)cc1	12.6 µM [rising, single point]	–
CCCc1nc(N2CCN(C)CC2)c2sc(=S)n(-c3ccccc3)c2n1	1.26 µM [rising, full curve, poor fit]	–
Cc1[nH]c2ccccc2c1/C=N/NC(=O)c1cccc([N+](=O)[O-])c1	–	0.708 µM [falling, full curve]
COc1nc(N2CCOCC2)nc(C)c1[N+](=O)[O-]	–	14.1 µM [rising, single point]
O=C(Nc1ccc(N2CCN(C(=O)c3ccc(Cl)cc3)CC2)cc1)c1ccc([N+](=O)[O-])o1	5.62 µM [falling, partial curve]	0.316 µM [falling, full curve]
O=C(CCCN1C(=O)/C(=C\c2ccco2)SC1=S)Nc1ccc2ccccc2c1	2.24 µM [rising, full curve, poor fit]	–
CCCN1CCN(c2ncnc3sc(C(=O)Nc4ccc(OC(F)(F)F)cc4)c(C)c23)CC1	2.82 µM [rising, partial curve, poor fit]	–
COc1ccc(-n2nnnc2SCC(=O)c2ccc(OC)c(OC)c2)cc1	35.5 µM [rising, single point]	–
CCn1ncc(C2=NOC(C(=O)Nc3ccc4c(c3)OCO4)C2)c1C (stereo not drawn)	12.6 µM [rising, partial curve]	12.6 µM [rising, partial curve]
COc1ccc(C(=O)C2CCCN(C(=O)C3=CCCC3)C2)cc1OC (stereo not drawn)	–	11.2 µM [rising, partial curve]
CCCn1cnc2c1c(=O)n(CCCCC(C)=O)c(=O)n2C	0.0501 µM [rising, full curve, poor fit]	–
O=C1N/C(=C/c2cccs2)C(=O)N1Cc1ccc(F)cc1	0.316 µM [falling, full curve, poor fit]	3.98 µM [falling, full curve, poor fit]
O=S(=O)(NCCc1csc(-c2cccnc2)n1)c1ccc(Cl)s1	14.1 µM [rising, single point]	–
O=C(CS(=O)(=O)c1cccc2nsnc12)N1CCN(c2ccc(F)cc2)CC1	0.398 µM [rising, full curve, poor fit]	0.112 µM [rising, full curve, poor fit]
CCCCN(CC)CCCNC(=O)c1ccc2c(c1)N(Cc1ccc(C)cc1)C(=O)c1ccccc1S2	22.4 µM [falling, single point]	14.1 µM [falling, single point]

Twelve compounds already listed, sorted by molar mass, rising:
SMILES	AC50 [1]	AC50 [2]
COc1nc(N2CCOCC2)nc(C)c1[N+](=O)[O-]	–	14.1 µM [rising, single point]
N#C/C(=C\Nc1ccccc1O)c1nc2ccccc2o1	15.8 µM [rising, single point]	–
CCCn1cnc2c1c(=O)n(CCCCC(C)=O)c(=O)n2C	0.0501 µM [rising, full curve, poor fit]	–
CC1CN/C(=C\C(=O)c2ccc(Br)cc2)C(=O)N1 (stereo not drawn)	0.708 µM [falling, full curve, poor fit]	–
Cc1[nH]c2ccccc2c1/C=N/NC(=O)c1cccc([N+](=O)[O-])c1	–	0.708 µM [falling, full curve]
CCn1ncc(C2=NOC(C(=O)Nc3ccc4c(c3)OCO4)C2)c1C (stereo not drawn)	12.6 µM [rising, partial curve]	12.6 µM [rising, partial curve]
COc1ccc(C(=O)C2CCCN(C(=O)C3=CCCC3)C2)cc1OC (stereo not drawn)	–	11.2 µM [rising, partial curve]
CC(C)c1ccc(NC(=O)CSc2nnc(-c3ccccn3)n2C)cc1	12.6 µM [rising, single point]	–
O=S(=O)(NCCc1csc(-c2cccnc2)n1)c1ccc(Cl)s1	14.1 µM [rising, single point]	–
O=C(CCCN1C(=O)/C(=C\c2ccco2)SC1=S)Nc1ccc2ccccc2c1	2.24 µM [rising, full curve, poor fit]	–
CCCN1CCN(c2ncnc3sc(C(=O)Nc4ccc(OC(F)(F)F)cc4)c(C)c23)CC1	2.82 µM [rising, partial curve, poor fit]	–
CCCCN(CC)CCCNC(=O)c1ccc2c(c1)N(Cc1ccc(C)cc1)C(=O)c1ccccc1S2	22.4 µM [falling, single point]	14.1 µM [falling, single point]
